Laboratory results as given in PubChem BioAssay AID2685 (National Center for Advancing Translational Sciences (NCATS), 2010).
The whole screen tested about 320,000 compounds, of which about 2,100 (0.66%) were called active. The shares of active, inactive and inconclusive entries below differ from those in the screen. Calls come from the whole dose curve; as a rule, active = well fitted inhibition curve with a large enough effect in the signal ratio, with a control signal flat (not every such curve was filed as active); inconclusive = small, poorly fitted or top-dose-only effect, or effect the other way, or a change in a side signal; inactive = flat fitted curve, though single readings scatter; the % refers to the signal ratio. Where the call is inconclusive, the potency comes from a doubtful curve fit.
% is set by controls: 0 for no effect and ±100 for the full control effect; potency is the fitted concentration of half-maximal effect.

Assay: qHTS Assay for Lipid Storage Modulators in Drosophila S3 Cells
Details: BODIPY lipid droplet fluorescence, 18-24 h, cells fed with added oleic acid; lipid storage change, negative = inhibition: at 46.1 µM (top of the series) unless noted
How it was run: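 Drosophila S3 cells loaded with oleic acid (400 uM, as added) and compounds at several concentrations; lipid droplets imaged by 488-nm laser-scanning cytometry, 500–530 nm intensity and object ratio to cell channel. Percent activity normalized to 20 uM Triacsin C.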
In the case of `CCOc1ccc(N2C(=O)C3C4C=CC(CC4)C3C2=O)c([N+](=O)[O-])c1` (configuration not stated), the lipid storage change, negative = inhibition is reported as inconclusive: 39.2%. For `CCS(=O)(=O)Nc1cccc(C2=NN(S(C)(=O)=O)C(c3cccs3)C2)c1` (configuration not stated), the lipid storage change, negative = inhibition was inconclusive: 253%. In the case of `Cc1cc(C)cc(NC(=S)NCCc2c[nH]c3ccccc23)c1`, the lipid storage change, negative = inhibition is reported as inconclusive: 0.707%. For `Cc1ccccc1NC(=O)CCC(=O)N/N=C/c1cccnc1`, the lipid storage change, negative = inhibition was inconclusive: 19.7%. In the case of `O=C(COC(=O)c1ccc(S(=O)(=O)N2CCCC2)cc1)Nc1cccc(Cl)c1`, the lipid storage change, negative = inhibition is reported as inconclusive: 52.3%. With `COc1ccc(CN2CCN(C(=O)CCC(=O)c3ccc(C)s3)CC2)cc1OC` the Potency was inconclusive: 6.51 µM [activator, partial curve, poor fit]. With `Cn1nc(C(=O)N2CCN(c3ccc(F)cc3)CC2)c2c1-c1ccccc1S(=O)(=O)C2` the lipid storage change, negative = inhibition was inconclusive: -5.7%. For `CCCn1c(N)c(C(=O)CSc2nnc(-c3ccoc3C)n2C)c(=O)n(C)c1=O`, the Potency was inconclusive: 0.731 µM [falling, full curve, poor fit]. In the case of `O=C(CCc1c[nH]c2ccccc12)NCc1cccc(Cl)c1`, the lipid storage change, negative = inhibition is reported as inconclusive: 62.8%. For `COc1ccc(C2CC(=O)c3c(ccc4ccccc34)N2)cc1OC` (configuration not stated), the Potency was inconclusive: 6.51 µM [activator, single point]. In the case of `CC(=O)C1=C(C)NC(SCC(=O)Nc2nccs2)=C(C#N)C1c1ccccc1Cl` (configuration not stated), the Potency is reported as inconclusive: 0.651 µM [activator, single point]. With `Cc1ccc(NC(=O)CN(C)C(=O)c2ccccc2Sc2ccccc2C#N)cc1` the Potency was inconclusive: 6.51 µM [falling, single point]. For `Cc1cc(C)n2nc(C(=O)OCC(=O)c3cc(C)n(CC4CCCO4)c3C)nc2n1` (configuration not stated), the lipid storage change, negative = inhibition was inconclusive: 40.8%. With `CCN(CC(=O)Nc1c(F)cccc1F)C(=O)c1ccc2c(=O)n3c(nc2c1)CCC3` the lipid storage change, negative = inhibition was inconclusive: -20.9%. With `COc1cccc(C(=O)OCC(=O)c2ccc(Br)s2)c1OC` the Potency was inconclusive: 6.51 µM [activator, single point]. With `COc1cnc(-c2ccccc2)nc1Sc1ccccc1` the “lipid storage change, negative = inhibition” value was inactive: 9.35%. For `COc1ccc(N(Cc2cc3ccc(C)cc3[nH]c2=O)C(=O)c2ccco2)cc1`, the “lipid storage change, negative = inhibition” value was inactive: 14.3%. For `Cc1cc(NC(=O)CSc2nc(=O)cc(N)n2-c2ccc(Cl)cc2)no1`, the lipid storage change, negative = inhibition was inconclusive: 1.18%. For `Cc1ccc(CN(C(=O)c2ccccc2C)C2CCS(=O)(=O)C2)o1` (configuration not stated), the lipid storage change, negative = inhibition was inconclusive: 58.4%. For `CC(=O)NC(=O)c1ccc(-c2ccc(Cl)cc2)o1`, the lipid storage change, negative = inhibition was inconclusive: 1.16%. For `CC(=O)NC(C)c1cc(Cl)c2cccnc2c1O` (configuration not stated), the lipid storage change, negative = inhibition was inconclusive: -85.7%. For `Cc1[nH]c2ccccc2c1SCC(=O)N1CCC(C)CC1`, the “lipid storage change, negative = inhibition” value was inactive: -7.23%. In the case of `COc1cc(OC)c(NC(=O)C(=O)CC(=O)c2ccc(C)cc2C)cc1Cl`, the “lipid storage change, negative = inhibition” value is reported as inactive: -15.5%. In the case of `COc1ccc(-n2c(C)cc(C(=O)COC(=O)Cn3cnc4ccccc43)c2C)cc1`, the lipid storage change, negative = inhibition is reported as inconclusive: -109%. For `CC(C)Oc1ccc(S(=O)(=O)N2CCOCC2)cc1NC(=O)C1COc2ccccc2O1` (configuration not stated), the lipid storage change, negative = inhibition was inconclusive: 23.8%. For `CCOc1ccc(CCNC(=O)c2ccc(Cl)c(S(=O)(=O)N3CCOCC3)c2)cc1OCC`, the lipid storage change, negative = inhibition was “inconclusive”. For `CCCn1c(N)c(N(CCOC)C(=O)Cc2ccc(S(=O)(=O)N3CCOCC3)s2)c(=O)[nH]c1=O`, the lipid storage change, negative = inhibition was “inconclusive”. For `Cc1cccc2sc(NNC(=O)c3ccc(S(=O)(=O)N4CCCC(C)C4)cc3)nc12` (configuration not stated), the Potency was inconclusive: 29.1 µM [falling, single point]. With `Cc1nc2ccccn2c1C(=O)N=Nc1c(O)[nH]c2ccccc12` the lipid storage change, negative = inhibition was inconclusive: -12.4%. With `O=C(CN1C(=O)NC2(CCCC2)C1=O)NNC(=O)c1ccc(Cl)cc1` the lipid storage change, negative = inhibition was inconclusive: -0.0141%. In the case of `O=C(N1CCOCC1)N1CCC(n2nnc3ccccc32)CC1`, the Potency is reported as inconclusive: 0.411 µM [activator, partial curve]. In the case of `CC(OC(=O)c1ccc(Br)o1)C(=O)Nc1ccc2c(c1)OCCO2` (configuration not stated), the lipid storage change, negative = inhibition is reported as inconclusive: 12.3%. For `CCOc1ccc(CC(=O)Nc2sc(Cc3ccccc3)c(C)c2C(N)=O)cc1OCC`, the Potency was inconclusive: 25.9 µM [falling, partial curve, poor fit]. With `CCOc1ccc(C2CC(=O)NC3=C2C(=O)CCC3)cc1` (configuration not stated) the lipid storage change, negative = inhibition was inconclusive: 31.6% [at 0.0737 µM]. With `COC(=O)c1ccc(=O)n(Cc2ccc3c(c2)OCO3)c1` the Potency was inconclusive: 3.26 µM [activator, single point]. With `Cc1oc(-c2ccc(Cl)cc2)[n+]([O-])c1C` the lipid storage change, negative = inhibition was inconclusive: -7.45%. For `O=C(C1CCC1)N1CCc2cc(S(=O)(=O)N3CCN(c4ccccn4)CC3)ccc21`, the “outcome” value was “inactive [at 46.1 µM]”. For `COc1ccc(-c2nn(C)c(=O)c3ccccc23)cc1NS(C)(=O)=O`, the Potency was inconclusive: 18.4 µM [activator, single point]. With `CSc1nc2nc3c(cc2c(=O)n1-c1cccc(C)c1)COC(C)(C)C3` the lipid storage change, negative = inhibition was inconclusive: -18.8%. In the case of `CCN(CC)CCCNC(=O)C1CCN(C(=O)c2cc3sccc3n2Cc2ccc(F)cc2)CC1`, the lipid storage change, negative = inhibition is reported as inconclusive: -38.2%. With `CC1CCCN(C(=O)C2CCN(c3ncnc4c3nc3n4CCCCC3)CC2)C1` (configuration not stated) the lipid storage change, negative = inhibition was inconclusive: -85.3%. In the case of `CCNC(=O)CCn1nc(-c2ccc(C)cc2)c2ccccc2c1=O`, the lipid storage change, negative = inhibition is reported as inconclusive: 10.3%. In the case of `O=C(CCCSc1ccccc1)Nc1nc(-c2ccco2)c(-c2ccco2)s1`, the lipid storage change, negative = inhibition is reported as inconclusive: -46.3%. For `O=C(CCc1ccccc1)NNC(=O)Cc1ccccc1`, the lipid storage change, negative = inhibition was inconclusive: 25.1%. For `O=C(NCc1ccccn1)c1cccc(NS(=O)(=O)c2ccccc2)c1`, the lipid storage change, negative = inhibition was inconclusive: -16.1%. For `CCCNC(=O)C(Cc1ccccc1C)NC(=O)c1ccc(C(F)(F)F)cc1` (configuration not stated), the lipid storage change, negative = inhibition was inconclusive: 9.82%. For `COc1ccc(-c2cn[nH]c2C)cc1`, the lipid storage change, negative = inhibition was inconclusive: 7.81%. In the case of `CC1=NN(C(N)=S)C(=O)C1N=Nc1cccc(Cl)c1C` (configuration not stated), the lipid storage change, negative = inhibition is reported as inconclusive: -20.2%. With `O=c1oc(CCO)cc2ccc(C#Cc3ccsc3)cc12` the Potency was inconclusive: 0.103 µM [falling, full curve, poor fit]. For `Oc1ccc(C2N=C(c3ccccc3)NC(c3ccccc3)=N2)cc1`, the Potency was inconclusive: 0.103 µM [rising, full curve, poor fit]. For `Cc1ccc(/C=C2/SC(=Nc3ccc(F)cc3)NC2=O)s1`, the lipid storage change, negative = inhibition was inconclusive: 15.4%. In the case of `O=C1CN(C(=O)CNC(=O)c2ccccc2Cl)c2ccccc2N1`, the lipid storage change, negative = inhibition is reported as inconclusive: -39.1%. For `COCCOC(=O)C1=C(C)NC2=C(C(=O)CC(C)(C)C2)C1c1cccnc1` (configuration not stated), the Potency was inconclusive: 0.0517 µM [rising, partial curve, poor fit]. For `O=C(NCCN1CCOCC1)c1cccc(S(=O)(=O)N2CCCC2)c1`, the “outcome” value was “inactive [at 46.1 µM]”. With `O=C(Nc1ccc2c(c1)OCO2)c1noc2c1CCCC2` the lipid storage change, negative = inhibition was inconclusive: 3.75%. In the case of `O=C(O)c1cccc(NC(=O)c2ccc3c(c2)C(=O)N(c2ccccc2)C3=O)c1`, the lipid storage change, negative = inhibition is reported as inconclusive: 7.01%. For `Cc1ccccc1CCN(C(=O)Cn1nnc2ccccc21)C(C(=O)NCC1CCCO1)c1nc2ccccc2n1C` (configuration not stated), the lipid storage change, negative = inhibition was inconclusive: -7.97%. In the case of `CCn1cc(C(=O)NCCCN2CCCC(C)C2)c(=O)c2cc(S(=O)(=O)N(C)C3CCCCC3)ccc21` (configuration not stated), the lipid storage change, negative = inhibition is reported as inconclusive: 13.1%. With `Cc1cccc(NC(=O)c2ccc(CN3CCc4ccccc4C3)cc2)c1C` the lipid storage change, negative = inhibition was inconclusive: 7.99%. With `Cc1cccc(CS(=O)(=O)Cc2ccc(C(=O)NCCc3ccccc3)o2)c1` the lipid storage change, negative = inhibition was inconclusive: 43.5%. For `Cc1ccc(NC(=O)Nc2cc(C(F)(F)F)c[nH]c2=O)cc1`, the Potency was inconclusive: 6.51 µM [activator, partial curve]. For `CC(OC(=O)c1ccc2ncsc2c1)C(=O)Nc1ncc(Cl)cc1Cl` (configuration not stated), the lipid storage change, negative = inhibition was inconclusive: -0.719%. With `CCOC(=O)N1CCN(C(=O)CSc2ccc3nnc(CCNC(=O)c4ccccc4)n3n2)CC1` the lipid storage change, negative = inhibition was inconclusive: -18.5%. For `CCCc1cc(=O)[nH]c(SCC(=O)c2cc(C)n(-c3c(C)n(C)n(-c4ccccc4)c3=O)c2C)n1`, the lipid storage change, negative = inhibition was inconclusive: 73.4%. In the case of `CSc1nc(-c2ccccc2)nc(N2CCOCC2)c1C(C)=O`, the lipid storage change, negative = inhibition is reported as inconclusive: -20.5%. For `CCOC(=O)c1csc(NC(=O)CSc2nnnn2-c2ccc(OCC)cc2)n1`, the lipid storage change, negative = inhibition was inconclusive: 14.6%. In the case of `CCN(CC)S(=O)(=O)c1ccc(/C(O)=C2/C(=O)C(=O)N(CCOC)C2c2ccccc2)cc1` (configuration not stated), the Potency is reported as inconclusive: 0.651 µM [falling, single point]. For `CC(C)NC(=O)NC(=O)CN1c2cccc3cccc(c23)S1(=O)=O`, the lipid storage change, negative = inhibition was inconclusive: -7.64%. With `CC1N(C)c2cccc3cccc(c23)N1C` the lipid storage change, negative = inhibition was inconclusive: 0.329%. With `CCC(C)(C(=O)NC1CCCCC1)N(Cc1ccco1)C(=O)Cc1cccs1` (configuration not stated) the lipid storage change, negative = inhibition was inconclusive: -19.3%. For `COc1cc(-c2cc(C(=O)NN3CCN(C)CC3)c3ccccc3n2)cc(OC)c1OC`, the Potency was inconclusive: 0.0731 µM [activator, full curve]. In the case of `Cc1ccc(/C=C/C(=O)NC(=S)Nc2ccc(S(=O)(=O)Nc3cc(C)on3)cc2)cc1`, the Potency is reported as inconclusive: 0.651 µM [activator, partial curve, poor fit]. In the case of `CC(C)CCNC(=O)C1CCC(=O)N1C(C)C` (configuration not stated), the lipid storage change, negative = inhibition is reported as inconclusive: -23%. For `Cc1ccc(NC(=O)CSc2nnc(NC(=O)C3CC3)s2)cc1`, the lipid storage change, negative = inhibition was inconclusive: 2.63%. For `Cc1ccc(/C=N/N=C2\SCC(=O)N2CC2CC2)cc1`, the lipid storage change, negative = inhibition was inconclusive: 4.22%. In the case of `COc1ccc2occ(C(=O)c3ccc(N=C(C)N(C)C)cc3)c2c1`, the lipid storage change, negative = inhibition is reported as inconclusive: 14.2%. With `CC(=O)c1cccc(NC(=O)CSc2nc(=O)n(CCN3CCOCC3)c3c2CCCC3)c1` the Potency was inconclusive: 29.1 µM [falling, single point].
